Data taken from article doi:10.1101/2022.07.21.500940 (bioRxiv, 2022).
These are yes or no findings as the source states them, for the method shown. Sequences can lack the tags named with a protein.

By UniProt entry, the sequences of proteins in these tests, tags left out.
UniProt P12004: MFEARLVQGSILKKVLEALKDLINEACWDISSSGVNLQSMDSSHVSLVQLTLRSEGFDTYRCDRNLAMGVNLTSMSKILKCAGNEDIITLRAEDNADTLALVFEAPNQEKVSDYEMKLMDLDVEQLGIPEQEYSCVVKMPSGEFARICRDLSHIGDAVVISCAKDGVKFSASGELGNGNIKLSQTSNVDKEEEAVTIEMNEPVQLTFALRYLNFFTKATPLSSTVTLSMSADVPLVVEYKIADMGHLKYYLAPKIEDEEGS

Target: T1, GST-tagged SNM1A peptide spanning the PBZ and UBZ motifs (GST-PBZ-UBZ) (human)
T1 sequence: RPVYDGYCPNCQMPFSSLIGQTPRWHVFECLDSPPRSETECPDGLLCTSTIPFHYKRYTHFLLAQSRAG
Test: pull-down

- binding: no binding (tested: 150 ng)
Substance: Human PCNA (from UniProt P12004 1-261)
